Patent US20110256144A1 (TORAY INDUSTRIES, published 2011)
These are yes or no findings as the source states them, for the method shown. In cells and extracts the contact can be indirect. Some entries that bind do so weakly or less than the wild type.

Target: T1, polypeptide of SEQ ID NO: 136 (human)
T1 sequence (peptide): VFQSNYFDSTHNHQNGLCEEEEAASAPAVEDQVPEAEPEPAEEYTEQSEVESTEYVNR
Test: trypsin digestion of antibody-bound reduced-alkylated CAPRIN-1, protein A capture, LC-MS

B1: monoclonal antibody #1 against CAPRIN-1 (antibody, V domains shown)
VH: EVQLHQFGAELVKPGASVKISCKASGYTFTDYNMDWVKQSHGKSLEWIGDINPNYDSTSYNQKFKGKATLTVDKSSSTAYMELRSLTSEDTAVYYCARSRSYDYEGFAYWGQGTLVTVSA
VL: DIQMTQSPASLSASVGETVTITCRASGNIHNYLAWYQQKQGKSPQLLVYNAKTLADGVPSRFSGSGSGTQYSLKINSLQPEDFGSYYCQHFWSTLTFGAGTKLELKR
notes: also called the #1 monoclonal antibody to CAPRIN-1; antibody (a)
binding: binds
